Source: patent US4301163A, “Amino-ether oxides and use thereof in therapy” (priority 1979, dated 1981)

Experiment: in vivo
Details: mouse, iv
Experimental: The acute toxicity of the products of the invention was determined on groups of 20 Swiss OF1 mice weighing 22 to 24 grams by intravenous route. […] The limits of confidence of these values were determined by the method of Litchfield and Wilcoxon (J. Pharmacol. Exp. Ther. 1949, pages 96 to 99) and are given in table III.

Q: Which LD50 at 192 h does the source give for `CCN(CC)CC(=O)Nc1c(C)cccc1C` [lidocaine, reference compound] here?
A: Its LD50 at 192 h is 31.5 mg/kg.
